Test results taken from PubChem BioAssay AID200 (DTP/NCI, 2004).
The list does not hold the whole screen: it is rich in T/C values a quarter to a half above the control, in often repeated tests (any T/C) and in doses without a T/C. Other doses and runs of a compound stand elsewhere. T/C: endpoint of the treated group in % of that of the vehicle group. Some entries give survivors of the animals treated and no T/C: the source files T/C as zero there, which appears to mark a toxic dose or a test without result, not a measured value. Some survivor counts are full or nearly so, which does not show that the dose was tolerated: the source hardly ever lists a survival T/C far under the control, and the zero likely stands for such cases as well. Survivors were counted at the toxicity check, usually on the fifth day, unless a day is given; later deaths do not show. Schedules are NCI's codes, taken here to give the interval after Q, in days (D) or hours (H), and the number of doses after X. Some entries were tested several times; the results are listed from low to high. Where survival is the endpoint, the PubChem record calls one and a half times the control and up active, and a quarter to a half above the control has no call in these data; cut-offs in other NCI protocols can differ. Additions like (4×) count equal records among those shown. Some T/C values are followed by the survivors on the day toxicity was checked, most often the fifth; without a count, all were alive then. Where a SMILES comes first, the peptide text is derived from it.

System: B6C3F1 mice, B16 melanoma ip, median survival T/C
Experiment: NCI In Vivo Anticancer Drug Screen. Data for tumor model B16 Melanoma (intraperitoneal) in B6C3F1 mice
Conditions: T/C endpoint: median survival time, higher T/C = longer survival
Summary of the method: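 Values are T/C ratios: the measurement in treated animals divided by that in vehicle-treated controls, using survival or tumor size in mice carrying transplantable tumors.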

[1] = dose: 400.0 mg/kg/injection, schedule: Q01DX009 (ip), vehicle: Klucel (hydroxypropylcellulose) (HPC)
[2] = dose: 200.0 mg/kg/injection, schedule: Q01DX009 (ip), vehicle: Klucel (hydroxypropylcellulose) (HPC)
[3] = dose: 25.0 mg/kg/injection, schedule: Q01DX009 (ip), vehicle: saline with Tween-80
[4] = dose: 400.0 mg/kg/injection, schedule: Q01DX009 (ip), vehicle: saline
[5] = dose: 12.0 mg/kg/injection, schedule: Q01DX009 (ip), vehicle: saline with Tween-80
[6] = dose: 200.0 mg/kg/injection, schedule: Q01DX009 (ip), vehicle: saline
[7] = dose: 50.0 mg/kg/injection, schedule: Q01DX009 (ip), vehicle: saline
[8] = dose: 300.0 mg/kg/injection, schedule: Q01DX009 (ip), vehicle: saline
[9] = dose: 800.0 mg/kg/injection, schedule: Q01DX009 (ip), vehicle: saline
[10] = dose: 200.0 mg/kg/injection, schedule: Q01DX009 (ip), vehicle: saline with Tween-80
[11] = dose: 600.0 mg/kg/injection, schedule: Q01DX009 (ip), vehicle: saline

## CCCCCCCC(=O)N/N=C(\CO)[C@]1(O)Cc2c(O)c3c(c(O)c2[C@@H](OC2CC(N)C(O)C(C)O2)C1)C(=O)c1c(OC)cccc1C3=O (some centres not stated)
dose: 24.0 mg/kg/injection, schedule: Q01DX009 (ip), vehicle: water
  survivor count: 10 of 10
dose: 48.0 mg/kg/injection, schedule: Q01DX009 (ip), vehicle: saline
  survivor count: 10 of 10
dose: 48.0 mg/kg/injection, schedule: Q01DX009 (ip), vehicle: water
  survivor count: 10 of 10

## Cc1cccc(Nc2c(N)nc(N)nc2N)c1
dose: 115.0 mg/kg/injection, schedule: Q01DX009 (ip), vehicle: Klucel (hydroxypropylcellulose) (HPC)
  survivor count: 5 of 10
dose: 170.0 mg/kg/injection, schedule: Q01DX009 (ip), vehicle: Klucel (hydroxypropylcellulose) (HPC)
  survivor count: 4 of 10

## Cc1cc(C)c(-c2cc(O)c(C)cc2O)c(C)c1
[1]
  survivor count: 8 of 10

## O=C(O)CNC(=O)C(Cc1ccccc1)NC(=O)OCc1ccccc1 (configuration not stated) (HELM PEPTIDE1{[O=C(OCc1ccccc1)[*:2]].[O=C(C(Cc1ccccc1)N[*:1])[*:2]].G}$$$$V2.0)
[2]
  survivor count: 10 of 10
[1]
  survivor count: 10 of 10

## O=C1NC(c2ccccc2)N=C2Oc3ccccc3C=C12 (configuration not stated)
[3]
  T/C: 128 % of control (2×)
dose: 50.0 mg/kg/injection, schedule: Q01DX009 (ip), vehicle: saline with Tween-80
  survivor count: 10 of 10

## CC(=O)NCCCCCCNC(C)=O
[4]
  T/C: 140 % of control [9 of 10 alive]

## COC1=C(NC(C)=O)C(=O)c2nc(-c3nc(C(=O)O)c(C)c(-c4ccc(OC)c(OC)c4O)c3N)ccc2C1=O
dose: 100.0 mg/kg/injection, schedule: Q01DX009 (ip), vehicle: Klucel (hydroxypropylcellulose) (HPC)
  survivor count: 10 of 10
[2]
  survivor count: 1 of 10

## CC(=O)O[C@H]1C(=O)[C@@]2(C)C(C(OC(=O)c3ccccc3)[C@]3(O)CC(OC(=O)[C@H](OC(=O)CCC(=O)O)C(NC(=O)c4ccccc4)c4ccccc4)C(C)=C1C3(C)C)C1(OC(C)=O)COC1C[C@@H]2OC(=O)CCC(=O)O (some centres not stated)
dose: 11.0 mg/kg/injection, schedule: Q01DX009 (ip), vehicle: water
  T/C: 149 % of control

## NC(N)=NCCCC(NC(=O)c1ccccc1)C(=O)O (configuration not stated)
dose: 160.0 mg/kg/injection, schedule: Q01DX009 (ip), vehicle: saline with Tween-80
  T/C: 133 % of control

## CN=C(N)N/N=C(\C)c1ccc2c(c1)Cc1cc(/C(C)=N/NC(N)=NC)ccc1-2
dose: 3.0 mg/kg/injection, schedule: Q01DX009 (ip), vehicle: saline with Tween-80
  survivor count: 10 of 10
dose: 6.0 mg/kg/injection, schedule: Q01DX009 (ip), vehicle: saline with Tween-80
  survivor count: 7 of 10
[5]
  survivor count: 2 of 10

## CCOC(=O)C(N)CSC(=O)NC (configuration not stated)
[6]
  survivor count: 7 of 10
[4]
  survivor count: 3 of 10

## CSc1cc(=O)n2c3ccccc3c3ccnc1c32
dose: 20.0 mg/kg/injection, schedule: Q01DX009 (ip), vehicle: saline with Tween-80
  survivor count: 9 of 10

## S=C(Nc1ccc(Cl)c(Cl)c1)N1c2ccccc2-n2cccc2C1c1cccnc1 (configuration not stated)
[1]
  survivor count: 10 of 10
dose: 400.0 mg/kg/injection, schedule: Q01DX009 (ip), vehicle: saline with Tween-80
  survivor count: 10 of 10

## Nc1ccc(S(=O)(=O)Nc2cnc3c(Cl)cccc3n2)cc1
dose: 800.0 mg/kg/injection, schedule: Q01DX009 (ip), vehicle: DMSO
  survivor count: 1 of 10

## C/C(=N\NC(=O)c1ccccc1O)c1cccc(/C(C)=N/NC(=O)c2ccccc2O)n1
dose: 12.0 mg/kg/injection, schedule: Q01DX009 (ip), vehicle: saline
  survivor count: 10 of 10
dose: 25.0 mg/kg/injection, schedule: Q01DX009 (ip), vehicle: saline
  survivor count: 9 of 10
[7]
  survivor count: 9 of 10

## O=C1C2CC(CN3CCCCC23)C2CCCCN12 (configuration not stated)
[8]
  survivor count: 5 of 10

## O=S(O)O
[9]
  survivor count: 0 of 10

## NC(C(=O)O)c1ccc(CBr)cc1 (configuration not stated)
[5]
  T/C: 140 % of control
dose: 12.5 mg/kg/injection, schedule: Q01DX009 (ip), vehicle: saline with Tween-80
  T/C: 130 % of control
[3]
  T/C: 142 % of control
[10]
  T/C: 140 % of control [7 of 10 alive]
  survivor count: 0 of 10

## CCCCCCCCCCCCCCC/C([O-])=N/[N+](C)(C)CC(C)O (configuration not stated)
dose: 100.0 mg/kg/injection, schedule: Q01DX001 (ip), vehicle: saline
  survivor count: 10 of 10
dose: 300.0 mg/kg/injection, schedule: Q01DX001 (ip), vehicle: saline
  survivor count: 10 of 10
dose: 800.0 mg/kg/injection, schedule: Q01DX001 (ip), vehicle: saline with Tween-80
  survivor count: 0 of 10

## NCc1ccc(O)c(O)c1
[7]
  T/C: 102 (2×), 111, 112 % of control
dose: 100.0 mg/kg/injection, schedule: Q01DX009 (ip), vehicle: saline
  T/C: 100 [9 of 10 alive], 112, 123 [9 of 10 alive], 142 % of control
dose: 112.5 mg/kg/injection, schedule: Q03HX024 (ip), vehicle: saline
  T/C: 138 % of control (2×)
dose: 150.0 mg/kg/injection, schedule: Q01DX009 (ip), vehicle: saline
  T/C: 125 % of control
[6]
  T/C: 110 (2×), 125, 148 % of control [9 of 10 alive]
[8]
  T/C: 127 % of control
dose: 300.0 mg/kg/injection, schedule: Q03HX024 (ip), vehicle: saline
  T/C: 142 % of control (2×)
[4]
  T/C: 133 % of control
[11]
  T/C: 125 % of control
  survivor count: 8 of 10 and 10 of 10
[9]
  T/C: 118, 119, 132, 137 % of control
dose: 1200.0 mg/kg/injection, schedule: Q01DX009 (ip), vehicle: saline
  survivor count: 10 of 10

## O=C1c2ccccc2CCC1Cl (configuration not stated)
dose: 0.18 mg/kg/injection, schedule: Q01DX009 (ip), vehicle: DMSO
  survivor count: 10 of 10
dose: 0.37 mg/kg/injection, schedule: Q01DX009 (ip), vehicle: DMSO
  survivor count: 9 of 9
dose: 0.75 mg/kg/injection, schedule: Q01DX009 (ip), vehicle: DMSO
  survivor count: 10 of 10
dose: 1.5 mg/kg/injection, schedule: Q01DX009 (ip), vehicle: DMSO
  survivor count: 8 of 10
dose: 6.0 mg/kg/injection, schedule: Q01DX009 (ip), vehicle: DMSO
  survivor count: 10 of 10
dose: 12.0 mg/kg/injection, schedule: Q01DX009 (ip), vehicle: DMSO
  survivor count: 8 of 10
dose: 25.0 mg/kg/injection, schedule: Q01DX009 (ip), vehicle: DMSO
  survivor count: 7 of 7
dose: 50.0 mg/kg/injection, schedule: Q01DX009 (ip), vehicle: DMSO
  survivor count: 7 of 7
dose: 100.0 mg/kg/injection, schedule: Q01DX009 (ip), vehicle: DMSO
  survivor count: 4 of 7

## C=C1C(=O)C2=CC1CCC(=O)C1(C)CCC(OC(C)=O)C(C)(C)C1CC2O (configuration not stated)
dose: 60.0 mg/kg/injection, schedule: Q01DX009 (ip), vehicle: Klucel (hydroxypropylcellulose) (HPC)
  survivor count: 6 of 10 and 8 of 10
dose: 120.0 mg/kg/injection, schedule: Q01DX009 (ip), vehicle: Klucel (hydroxypropylcellulose) (HPC)
  survivor count: 0 of 10

## CCOC(=O)Nc1cc2c(c(N)n1)N=C(c1ccc3ccccc3c1)CN2
dose: 1.87 mg/kg/injection, schedule: Q01DX009 (ip), vehicle: saline with Tween-80
  T/C: 133 % of control
dose: 3.75 mg/kg/injection, schedule: Q01DX009 (ip), vehicle: saline with Tween-80
  T/C: 141 % of control
dose: 7.5 mg/kg/injection, schedule: Q01DX009 (ip), vehicle: saline with Tween-80
  survivor count: 10 of 10
dose: 8.0 mg/kg/injection, schedule: Q01DX009 (ip), vehicle: saline with Tween-80
  survivor count: 10 of 10
dose: 15.0 mg/kg/injection, schedule: Q01DX009 (ip), vehicle: saline with Tween-80
  survivor count: 9 of 10
dose: 16.0 mg/kg/injection, schedule: Q01DX009 (ip), vehicle: saline with Tween-80
  survivor count: 10 of 10
dose: 32.0 mg/kg/injection, schedule: Q01DX009 (ip), vehicle: saline with Tween-80
  survivor count: 10 of 10
